# Test results: the supplement of paper PMC8728848
# The list shows a part of the results.
# B1: SAOUHSC 02783 (Staphylococcus aureus), Q5HD69 (protein)
# chain: MIHSKKLTLGICLVLLIILIVGYVIMTKTNGRNAQIKDTFNQTLKLYPTKNLDDFYDKEGFRDQEFKKGDKGTWIVNSEMVIEPKGKDMETRGMVLYINRNTRTTKGYYFISEMTDDSNGRPKDDEKRYPVKMEHNKIIPTKPLPNDKLKKEIENFKFFVQYGNFKDINDYKDGDISYNPNVPSYSAKYQLNNDDYNVQQLRKRYDIPTKQAPKLLLKGDGDLKGSSVGSRSLEFTFVENKEENIYFTDSVQYTPSEDTRYESN
# What was measured:
# Experiment in all cases: glycan array binding signal (z-score within array); higher = stronger binding
# Details in all cases: glycan notation: IUPAC condensed, linker removed
# [1] = target: GalNAc3S(b1-4)[Fuc(a1-3)]GlcNAc
# Outline: (§1)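 The Consortium for Functional Glycomics database supplied 3228 glycan arrays, of which those lacking an available protein sequence were dropped. The binding signal, a within-array Z-score, was averaged across arrays of the same protein sequence and across linkers. Negative scores can be read as non-binding.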
# GalNAc4S6S(b1-4)GlcNAc = target: GalNAc4S6S(b1-4)GlcNAc
# Outline: as §1
# GalNAc6S(b1-4)GlcNAc = target: GalNAc6S(b1-4)GlcNAc
# Outline: as §1
# Glc(a1-4)Glc = target: Glc(a1-4)Glc
# Outline: as §1
# [2] = target: Glc(a1-4)Glc(a1-4)Glc(a1-4)Glc
# Outline: as §1
# Glc(a1-6)Glc(a1-6)Glc = target: Glc(a1-6)Glc(a1-6)Glc
# Outline: as §1
# [3] = target: Glc(a1-6)Glc(a1-6)Glc(a1-6)Glc
# Outline: as §1
# Glc(b1-4)Glc = target: Glc(b1-4)Glc
# Outline: as §1
# Glc(b1-6)Glc = target: Glc(b1-6)Glc
# Outline: as §1
# GlcA(b1-3)Gal = target: GlcA(b1-3)Gal
# Outline: as §1
# GlcA(b1-3)GlcNAc = target: GlcA(b1-3)GlcNAc
# Outline: as §1
# GlcA(b1-6)Gal = target: GlcA(b1-6)Gal
# Outline: as §1
# [4] = target: GlcA3S(b1-3)Gal(b1-4)GlcNAc(b1-2)Man
# Outline: as §1
# [5] = target: GlcA3S(b1-3)Gal(b1-4)GlcNAc(b1-3)Gal(b1-4)Glc
# Outline: as §1
# [6] = target: GlcNAc(a1-3)Gal(b1-4)GlcNAc
# Outline: as §1
# [7] = target: GlcNAc(a1-4)Gal(b1-3)GlcNAc
# Outline: as §1
# [8] = target: GlcNAc(a1-4)Gal(b1-4)GalNAc
# Outline: as §1
# [9] = target: GlcNAc(a1-4)Gal(b1-4)GlcNAc
# Outline: as §1
# [10] = target: GlcNAc(a1-4)Gal(b1-4)GlcNAc(b1-3)Gal(b1-4)Glc
# Outline: as §1
# [11] = target: GlcNAc(a1-4)Gal(b1-4)GlcNAc(b1-3)Gal(b1-4)GlcNAc
# Outline: as §1
# [12] = target: GlcNAc(a1-4)Gal(b1-4)GlcNAc(b1-3)Gal(b1-4)GlcNAc(b1-3)Gal(b1-4)GlcNAc
# Outline: as §1
# [13] = target: GlcNAc(a1-4)Gal(b1-4)GlcNAc(b1-3)Gal(b1-4)[Fuc(a1-3)]GlcNAc(b1-3)Gal(b1-4)[Fuc(a1-3)]GlcNAc
# Outline: as §1
# [14] = target: GlcNAc(a1-6)Gal(b1-4)GlcNAc
# Outline: as §1
# [15] = target: GlcNAc(b1-2)Gal(b1-3)GalNAc
# Outline: as §1
# [16] = target: GlcNAc(b1-2)Man(a1-3)[GlcNAc(b1-2)Man(a1-6)]Man(b1-4)GlcNAc(b1-4)GlcNAc
# Outline: as §1
# [17] = target: GlcNAc(b1-2)Man(a1-3)[GlcNAc(b1-2)Man(a1-6)]Man(b1-4)GlcNAc(b1-4)[Fuc(a1-6)]GlcNAc
# Outline: as §1
# [18] = target: GlcNAc(b1-2)Man(a1-3)[GlcNAc(b1-4)][GlcNAc(b1-2)Man(a1-6)]Man(b1-4)GlcNAc(b1-4)GlcNAc
# Outline: as §1
# [19] = target: GlcNAc(b1-2)Man(a1-3)[GlcNAc(b1-4)][GlcNAc(b1-2)Man(a1-6)]Man(b1-4)GlcNAc(b1-4)[Fuc(a1-6)]GlcNAc
# Outline: as §1
# [20] = target: GlcNAc(b1-2)[GlcNAc(b1-4)]Man(a1-3)[GlcNAc(b1-2)Man(a1-6)]Man(b1-4)GlcNAc(b1-4)GlcNAc
# Outline: as §1
# [21] = target: GlcNAc(b1-2)[GlcNAc(b1-4)]Man(a1-3)[GlcNAc(b1-4)][GlcNAc(b1-2)Man(a1-6)]Man(b1-4)GlcNAc(b1-4)GlcNAc
# Outline: as §1
# [22] = target: GlcNAc(b1-2)[GlcNAc(b1-4)]Man(a1-3)[GlcNAc(b1-4)][GlcNAc(b1-2)[GlcNAc(b1-6)]Man(a1-6)]Man(b1-4)GlcNAc(b1-4)GlcNAc
# Outline: as §1
# [23] = target: GlcNAc(b1-2)[GlcNAc(b1-4)]Man(a1-3)[GlcNAc(b1-4)][GlcNAc(b1-2)[GlcNAc(b1-6)]Man(a1-6)]Man(b1-4)GlcNAc(b1-4)[Fuc(a1-6)]GlcNAc
# Outline: as §1
# [24] = target: GlcNAc(b1-2)[GlcNAc(b1-6)]Man(a1-6)[GlcNAc(b1-2)Man(a1-3)]Man(b1-4)GlcNAc(b1-4)GlcNAc
# Outline: as §1
# [25] = target: GlcNAc(b1-2)[GlcNAc(b1-6)]Man(a1-6)[GlcNAc(b1-2)Man(a1-3)]Man(b1-4)GlcNAc(b1-4)[Fuc(a1-6)]GlcNAc
# Outline: as §1
# [26] = target: GlcNAc(b1-2)[GlcNAc(b1-6)]Man(a1-6)[GlcNAc(b1-4)][GlcNAc(b1-2)Man(a1-3)]Man(b1-4)GlcNAc(b1-4)GlcNAc
# Outline: as §1
# GlcNAc(b1-3)Fuc = target: GlcNAc(b1-3)Fuc
# Outline: as §1
# GlcNAc(b1-3)Gal = target: GlcNAc(b1-3)Gal
# Outline: as §1
# [27] = target: GlcNAc(b1-3)Gal(b1-3)GalNAc
# Outline: as §1
binder,measurement,setting,value
B1,glycan array binding signal (z-score),[1],-1.08
same,glycan array binding signal (z-score),GalNAc4S6S(b1-4)GlcNAc,-0.245
same,glycan array binding signal (z-score),GalNAc6S(b1-4)GlcNAc,-0.879
same,glycan array binding signal (z-score),Glc(a1-4)Glc,0.82
same,glycan array binding signal (z-score),[2],1.43
same,glycan array binding signal (z-score),Glc(a1-6)Glc(a1-6)Glc,-0.322
same,glycan array binding signal (z-score),[3],-0.71
same,glycan array binding signal (z-score),Glc(b1-4)Glc,-1.03
same,glycan array binding signal (z-score),Glc(b1-6)Glc,0.024
same,glycan array binding signal (z-score),GlcA(b1-3)Gal,-0.403
same,glycan array binding signal (z-score),GlcA(b1-3)GlcNAc,-0.267
same,glycan array binding signal (z-score),GlcA(b1-6)Gal,2.83
same,glycan array binding signal (z-score),[4],0.195
same,glycan array binding signal (z-score),[5],1.27
same,glycan array binding signal (z-score),[6],-1.29
same,glycan array binding signal (z-score),[7],0.687
same,glycan array binding signal (z-score),[8],-0.19
same,glycan array binding signal (z-score),[9],-0.454
same,glycan array binding signal (z-score),[10],-0.807
same,glycan array binding signal (z-score),[11],0.739
same,glycan array binding signal (z-score),[12],-0.627
same,glycan array binding signal (z-score),[13],-0.718
same,glycan array binding signal (z-score),[14],-0.399
same,glycan array binding signal (z-score),[15],-0.63
same,glycan array binding signal (z-score),[16],0.726
same,glycan array binding signal (z-score),[17],0.323
same,glycan array binding signal (z-score),[18],-0.821
same,glycan array binding signal (z-score),[19],-0.185
same,glycan array binding signal (z-score),[20],1.11
same,glycan array binding signal (z-score),[21],-0.176
same,glycan array binding signal (z-score),[22],-0.289
same,glycan array binding signal (z-score),[23],-0.162
same,glycan array binding signal (z-score),[24],0.512
same,glycan array binding signal (z-score),[25],-1.54
same,glycan array binding signal (z-score),[26],-0.218
same,glycan array binding signal (z-score),GlcNAc(b1-3)Fuc,-0.235
same,glycan array binding signal (z-score),GlcNAc(b1-3)Gal,-0.166
same,glycan array binding signal (z-score),[27],-0.447

# Rewritten as tab-separated lines: part of the list above
binder	measurement	setting	value
B1	glycan array binding signal (z-score)	[23]	-0.162
same	glycan array binding signal (z-score)	[25]	-1.54
